Measurements reported in PubChem BioAssay AID652259 (Drosophila RNAi Screening Center, 2013).
The screen tested about 22,000 reagents; this is a random part of those that have a named target and a result. Of all reagents, 233 (1.1%) were called active. 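Light values are raw, unnormalised plate reads; the ratio scores behind the reporter calls were not deposited.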 Unmarked entries are inactive. Not stated in the record: the amount of reagent, the time to read-out, the dose of the treatment.

- Purpose: 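Identify new Wingless signalling regulators in fly cells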 (primary screen)
- Cell system: Drosophila clone 8 imaginal disc epithelial cells
- Reagent: long dsRNA against Drosophila genes
- Challenge: pathway stimulated by co-transfected Wingless expression plasmid
- Measured: 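Firefly luciferase from a tcf-site Wingless reporter, measured alongside co-transfected Renilla luciferase that tracks transfection; pathway stimulated by a Wingless plasmid; the firefly-to-Renilla ratio is not deposited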
- Scale: firefly reporter light: higher = more Wg reporter light, before normalisation; Renilla control light: higher = more transfected or surviving cells
- Hit rule: 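a knock-down is a candidate when at least two out of four statistical tests show it departing from its plate mean; one test alone signals a weak candidate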
- Calls: active = candidate regulator (raises or lowers reporter); inactive = not a candidate

target gene | dsRNA | reporter change call, replicate 1 | firefly reporter light, replicate 1 | firefly reporter light, replicate 2 | Renilla control light, replicate 1 | Renilla control light, replicate 2
Tip60 (GeneID 31362) | DRSC18661 | Wg reporter activity raised (active) | 12587 | 28448 | 1431 | 2373
shot (GeneID 36542) | DRSC05459 | – | 15362 | – | 9736 | –
shot (GeneID 36542) | DRSC05460 | – | 16359 | – | 13020 | –
shot (GeneID 36542) | DRSC07682 | – | 16427 | – | 4032 | –
CG6282 (GeneID 38985) | DRSC10616 | – | 8748 | – | 3400 | –
CCT1 (GeneID 42649) | DRSC16877 | – | 37655 | – | 8408 | –
Raf (GeneID 31221) | DRSC18821 | – | 13963 | – | 11591 | –
CG3107 (GeneID 35475) | DRSC04888 | – | 14368 | – | 4194 | –
CG10477 (GeneID 38679) | DRSC09732 | – | 1248 | 9421 | 1002 | 3388
CG6244 (GeneID 2768962) | DRSC10609 | – | 7554 | – | 4368 | –
su(w[a]) (GeneID 31054) | DRSC18840 | – | 1241 | 4632 | 580 | 1202
laf (GeneID 40606) | DRSC12246 | – | 16544 | – | 5157 | –
Usp47 (GeneID 38644) | DRSC11313 | – | 3250 | – | 1172 | –
TotC (GeneID 117462) | DRSC13449 | – | 3131 | – | 1618 | –
CG30339 (GeneID 246549) | DRSC05168 | – | 19396 | – | 9877 | –
Cad87A (GeneID 41441) | DRSC16161 | – | 5291 | – | 2052 | –
Gs2 (GeneID 32087) | DRSC20250 | – | 15536 | – | 10464 | –
zuc (GeneID 34609) | DRSC02160 | – | 14178 | – | 4363 | –
kuk (GeneID 42063) | DRSC15730 | – | 4071 | 8151 | 1426 | 2358

Reformatted: results already given
shot (GeneID 36542) [DRSC05459]
- firefly reporter light, replicate 1: 15362
- Renilla control light, replicate 1: 9736

shot (GeneID 36542) [DRSC05460]
- firefly reporter light, replicate 1: 16359
- Renilla control light, replicate 1: 13020

shot (GeneID 36542) [DRSC07682]
- firefly reporter light, replicate 1: 16427
- Renilla control light, replicate 1: 4032

CG6282 (GeneID 38985) [DRSC10616]
- firefly reporter light, replicate 1: 8748
- Renilla control light, replicate 1: 3400

CCT1 (GeneID 42649) [DRSC16877]
- firefly reporter light, replicate 1: 37655
- Renilla control light, replicate 1: 8408

The list goes on:
target gene | dsRNA | reporter change call, replicate 1 | firefly reporter light, replicate 1 | firefly reporter light, replicate 2 | Renilla control light, replicate 1 | Renilla control light, replicate 2
E(spl)mdelta-HLH (GeneID 43150) | DRSC16698 | – | 17121 | – | 12384 | –
CG32079 (GeneID 39230) | DRSC22636 | – | 7.09e5 | 6.05e5 | 3.05e5 | 588
pxb (GeneID 41899) | DRSC13110 | – | 3912 | – | 1148 | –
pxb (GeneID 41899) | DRSC14996 | – | 24898 | 8.50e5 | 7003 | 1.48e5
pxb (GeneID 41899) | DRSC14997 | – | 19558 | – | 6116 | –
pxb (GeneID 41899) | DRSC22225 | – | 5.19e5 | 5.33e5 | 2.64e5 | 2.57e5
Tsp86D (GeneID 41310) | DRSC15607 | – | 17321 | – | 4677 | –
porin (GeneID 34500) | DRSC03594 | – | 12913 | – | 3785 | –
Tab2 (GeneID 37216) | DRSC07481 | – | 4537 | – | 1501 | –
CG34296 (GeneID 5740662) | DRSC13961 | – | 4443 | – | 2393 | –
